Our source for the binding values is paper PMC6867699.

Chains of the proteins cited; added tags and fusions are not shown.
UniProt P40763: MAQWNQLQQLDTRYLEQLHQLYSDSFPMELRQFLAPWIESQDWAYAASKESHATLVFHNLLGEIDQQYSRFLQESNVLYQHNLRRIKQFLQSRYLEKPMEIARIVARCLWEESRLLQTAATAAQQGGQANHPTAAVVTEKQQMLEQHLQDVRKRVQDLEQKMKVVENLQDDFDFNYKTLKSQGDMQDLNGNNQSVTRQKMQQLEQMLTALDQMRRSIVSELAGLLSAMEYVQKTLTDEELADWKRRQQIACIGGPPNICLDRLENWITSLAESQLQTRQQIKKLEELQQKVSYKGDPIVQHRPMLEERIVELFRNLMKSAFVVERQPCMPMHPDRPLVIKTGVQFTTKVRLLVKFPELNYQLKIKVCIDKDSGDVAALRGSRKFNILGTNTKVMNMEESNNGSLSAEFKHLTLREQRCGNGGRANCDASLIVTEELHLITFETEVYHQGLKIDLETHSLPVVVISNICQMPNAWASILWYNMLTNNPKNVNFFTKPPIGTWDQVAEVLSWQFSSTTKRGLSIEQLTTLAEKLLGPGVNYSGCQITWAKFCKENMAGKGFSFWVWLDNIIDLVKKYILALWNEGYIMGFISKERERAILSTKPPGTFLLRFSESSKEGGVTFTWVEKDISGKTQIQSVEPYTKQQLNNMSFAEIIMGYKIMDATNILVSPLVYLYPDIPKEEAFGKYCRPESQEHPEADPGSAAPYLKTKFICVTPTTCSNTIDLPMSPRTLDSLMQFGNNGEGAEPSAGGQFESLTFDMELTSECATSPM

No constants are given. Whether binding was seen depends on the method and setting. Binding seen in cells or lysates may run through a third protein. Some binding calls cover weakened binding; strength is not graded here.

The assay concerns the target signal transducer and activator of transcription 3 (STAT3) (human (endogenous in SKBR3)) (UniProt P40763). Description: co-IP; SKBR3 cell line, nucleus; EGFR and STAT3 were immunoprecipitated and western blot performed for HER2. For orientation: In western blotting, separated proteins are transferred to a membrane and probed.

“Human epidermal growth factor receptor 2 (HER2) (from UniProt P04626 23-1255)”: the binding entry was “binds”.
